# Percent effect of library compounds

From ChEMBL document CHEMBL3988442, “University of Dundee, Small-Polar-MMV Screening Library” (2021).

T. brucei: 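Whole-parasite assay of Trypanosoma brucei over 72 hours; the read-out is not stated. Tested at 30 µM. Higher reads as stronger inhibition (inferred: compounds with an IC50 in retests scored well above the rest). Values scatter widely below zero; nearly all retest evidence comes from the higher of the two concentrations used. Of about 64,000 compounds tested this way, about 940 (1.5%) reached 50% or more in at least one test.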
Toxoplasma: 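Assay of Toxoplasma gondii numbers, read through their beta-galactosidase reporter with a colour substrate. Tested at 10 µM. Higher reads as fewer parasites (inferred from which compounds were picked for retests). Of about 67,000 compounds tested this way, about 260 (0.38%) reached 50% or more in at least one test.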

Values are the deposited “Percent Effect”, in %. The controls that fix the scale are not given in the record; negative values are as filed. Compounds were drawn at random from those tested, without regard to their results.

CN(C)c1nccc(CNS(=O)(=O)c2ccc(F)c(Cl)c2)n1 gave T. brucei: -15.46%; Toxoplasma: -5.939%. For COc1ccc(CCCC(=O)N2C[C@H](C3CC3)[C@@H](N(C)C)C2)cc1 the result was T. brucei: 16.7%; Toxoplasma: 3.461%. Result for CCn1ncc(Nc2[nH]cnc3nncc2-3)c1C was T. brucei: -18.6%; Toxoplasma: 13.43%. Result for NC(=O)N1CCCC(C(=O)NCc2ccccc2OC(F)(F)F)C1 (stereo not given) was T. brucei: -18.75%; Toxoplasma: 1.46%. Result for Cc1ccc(CN2CCC3(CC2)CC(N2CCN(C)CC2)CO3)s1.O=C(O)C(F)(F)F.O=C(O)C(F)(F)F.O=C(O)C(F)(F)F (stereo not given) was T. brucei: -296.4%; Toxoplasma: -21.41%. Cc1nnc(CN2CCCC(CCc3ccccc3C(F)(F)F)C2)o1 (stereo not given) read T. brucei: 32.35%; Toxoplasma: 3.358%.

With [H][C@@]12CN(C(=O)c3ccncc3)C[C@]1([H])OCCN2CCN1CCCC1 the screen gave T. brucei: -374.7%; Toxoplasma: -11.49%. Result for CCO[C@H]1CO[C@@]2(CCCN(S(=O)(=O)c3ccccc3)C2)C1 was T. brucei: -40.6%; Toxoplasma: -5.156%. With [H][C@]12CN(C(C)=O)CCN1C[C@H](CO)[C@H]2c1ccccc1 the screen gave T. brucei: -22.08%; Toxoplasma: 8.107%. Result for Cc1ccc(N2CCCc3sc(C(=O)NCCO)nc32)nn1 was T. brucei: 4.584%; Toxoplasma: 0.6693%. COc1ccc(OC)c(C(C)NC(=O)c2nn(C)c(C)c2Br)c1 (stereo not given) read T. brucei: -3.708%; Toxoplasma: 14.94%. CCc1ccc(CN(C)c2cc(COC)nc3ccnn23)cc1 read T. brucei: 8.961%; Toxoplasma: 20.32%.

NC(=O)c1cc2c(nc1CC1CCCCO1)CCC2 (stereo not given) read T. brucei: -52.04%; Toxoplasma: 3.058%. For Cc1cc(-n2nc(C)nc2-c2cn(CCN)nn2)ccn1 the result was T. brucei: -110.5%; Toxoplasma: -9.67%. NC1C=C(C(F)(F)F)NC=C1c1ccccc1 (stereo not given) gave T. brucei: 8.109%; Toxoplasma: -5.387%. For CN1CCC(CNC(=O)c2cccc(CN3CCCCCC3)c2)C1 (stereo not given) the result was T. brucei: 11.78%; Toxoplasma: 4.987%. CNC(=O)N1CCC2(CC1)c1ncc(-c3cccc(F)c3)n1CCN2C.O=C(O)C(F)(F)F gave T. brucei: -12.88%; Toxoplasma: -16.23%. CCC(c1ccc(F)cc1)S(=O)(=O)CCO (stereo not given) gave T. brucei: -37.68%; Toxoplasma: -13.85%.

O=C(CCOc1ccc(Cl)cc1)NCCCn1cccn1 read T. brucei: 0.88%; Toxoplasma: 7.98%. CC(C)(C)C(Cn1cccn1)NC(=O)c1ccco1 (stereo not given) gave T. brucei: 101.2%; Toxoplasma: 10.91%. CCCc1cc(N2CCC(NCC3(O)CCCCC3)CC2)nc(C)n1 gave Toxoplasma: -8.183%. Cc1oc(-c2ccsc2)nc1CC(=O)NCCS(C)(=O)=O gave T. brucei: -13.4%; Toxoplasma: 12.08%. With O=C(c1cnccn1)N1CCc2ncnc(C3CCOC3)c2CC1 (stereo not given) the screen gave T. brucei: -22.75%; Toxoplasma: -22.16%. For CCOc1ccc(C(=O)CCC(=O)N(C)Cc2noc(C)n2)cc1C the result was T. brucei: 10.89%; Toxoplasma: 1.875%.

O=C(NCC1CC1)C1CCC2(CCNCC2)C1 (stereo not given) gave T. brucei: -22.19%; Toxoplasma: -11.67%. CCc1nc(CCNC(=O)NC2CCN(C(C)C)C2)sc1C (stereo not given) gave T. brucei: 9.95%; Toxoplasma: 1.212%. For Cc1ccc(-c2cnnc(N3CCCC3c3nonc3C)n2)o1 (stereo not given) the result was T. brucei: -10.66%; Toxoplasma: -2.756%. COc1c(C)cnc(CN2CCn3c(C)nnc3C2)c1C read T. brucei: -44.24%; Toxoplasma: -30.79%. For O=C(O)C(F)(F)F.O=C(O)C(F)(F)F.[H][C@@]12CCCO[C@]1([H])[C@H](N1CCCC1)CN(c1ccc(C)nn1)C2 the result was T. brucei: -78.07%; Toxoplasma: 1.348%. Cc1cnc(CCN(C)C(=O)c2cccc(N(C)C)c2)s1 gave T. brucei: -14.91%; Toxoplasma: 12.84%.

[H][C@]12CC[C@]([H])(CN(S(C)(=O)=O)C1)N(Cc1ccc3nsnc3c1)C2 gave T. brucei: -23.46%; Toxoplasma: 25.65%.

For reference, 4 entries once more:

With O=C(NCC1CC1)C1CCC2(CCNCC2)C1 (stereo not given) the screen gave T. brucei: -22.19%; Toxoplasma: -11.67%.
With NC(=O)c1cc2c(nc1CC1CCCCO1)CCC2 (stereo not given) the screen gave T. brucei: -52.04%; Toxoplasma: 3.058%.
With CCC(c1ccc(F)cc1)S(=O)(=O)CCO (stereo not given) the screen gave T. brucei: -37.68%; Toxoplasma: -13.85%.
With Cc1ccc(CN2CCC3(CC2)CC(N2CCN(C)CC2)CO3)s1.O=C(O)C(F)(F)F.O=C(O)C(F)(F)F.O=C(O)C(F)(F)F (stereo not given) the screen gave T. brucei: -296.4%; Toxoplasma: -21.41%.